Some of the results follow. These are further read-outs of the screen, such as a control signal, another cell line or another target. No call is given for them. Most of these compounds were active or inconclusive in the main read-out, so they are no random draw. Potencies come from curve fits of mixed quality, noted in brackets.
Assay: qHTS Assay for Lipid Storage Modulators in Drosophila S3 Cells;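 for cell number change: cells counted by Cell Tracker Red CMTPX staining in the red channel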
Details: BODIPY lipid droplet fluorescence, 18-24 h; for cell number change: measured here: cell count max response, cells fed with added oleic acid
Outline: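 Drosophila S3 cells loaded with oleic acid (400 uM, as added) and compounds at several concentrations; lipid droplets imaged by 488-nm laser-scanning cytometry, 500–530 nm intensity and object ratio to cell channel. Percent activity normalized to 20 uM Triacsin C.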

[1] = measured here: lipid fluorescence (Fed channel) AC50, cells fed with added oleic acid
[2] = measured here: cell number channel AC50, cells fed with added oleic acid

Compound	cell number change [%]	AC50 [1]	AC50 [2]
CCc1ccc(CN2CCCC(CNC(=O)c3cccc(OC)c3OC)C2)cc1 (configuration not stated)	1.46	7.31 µM [rising, partial curve]	–
CC1=C(CC(=O)NCC(=O)NCC(=O)O)c2cc(F)ccc2/C1=C/c1ccc(S(C)=O)cc1 (configuration not stated)	–	–	0.326 µM [rising, partial curve, poor fit]
COc1ccc(NC(=O)CNC(=O)c2c(C)nn(C)c2Cl)cc1	25.8	–	–
O=C(Cc1c(F)cccc1Cl)N/N=C/c1cccs1	-9.9	0.82 µM [rising, full curve]	–
COc1ccc(S(=O)(=O)N(CC(=O)N2CCOCC2)c2ccc(F)cc2)cc1OC	-9.21	35.5 µM [falling, single point]	–
CCOCC(=O)Nc1cc(Cl)c(OC)cc1OC	17.5	0.58 µM [falling, single point]	–
COc1ccc(NC(=O)CN2C(=O)COc3ccc(C)cc32)c(OC)c1	-1.17	10.3 µM [rising, partial curve]	–
O=C(Cn1ccc([N+](=O)[O-])n1)NCc1cccnc1	-28.7	0.651 µM [falling, full curve, poor fit]	–
CCOc1ccc2nc(N(CCN(C)C)C(=O)c3ccc4c(c3)CCCC4)sc2c1	10.4	14.6 µM [falling, single point]	–
Cc1nn(Cc2ccc(Cl)cc2)c(C)c1NC(=O)CSc1n[nH]c(C)c1[N+](=O)[O-]	26.6	18.4 µM [rising, single point]	–
CC(NS(=O)(=O)c1ccc(Cl)cc1)C(=O)Nc1ccc2c(c1)OCCO2 (configuration not stated)	-23.7	–	–
COc1ccc(CN(CC(=O)NCc2ccc(F)cc2)C(=O)CCC(=O)Nc2cc(C)ccn2)cc1	–	29.1 µM [falling, single point]	–
O=[N+]([O-])c1cccc(Cl)c1NCCNS(=O)(=O)c1ccc(Cl)cc1	-27.8	16.4 µM [falling, single point]	–
Cc1cccc(C(=O)NCCN2CCN(c3ccccc3)CC2)c1	-28.4	20.6 µM [falling, partial curve, poor fit]	–
O=C(Nc1ccccc1Cl)O/N=C(/c1ccccc1)c1ccccn1	20.1	58 µM [rising, partial curve, poor fit]	–
Cc1oc(-c2ccccc2Cl)nc1CS(=O)CC(=O)NCc1cccs1 (configuration not stated)	46.3	0.146 µM [falling, full curve, poor fit]	6.51 µM [rising, single point]
COc1ccc(CC(=O)N2CCN(c3ccccn3)CC2)cc1OC	10.5	25.9 µM [rising, single point]	2.06 µM [rising, partial curve]

Rewritten as a markdown table: entries from further up.

| Compound | cell number change [%] | AC50 [1] | AC50 [2] |
| --- | --- | --- | --- |
| COc1ccc(NC(=O)CNC(=O)c2c(C)nn(C)c2Cl)cc1 | 25.8 | – | – |
| CCOCC(=O)Nc1cc(Cl)c(OC)cc1OC | 17.5 | 0.58 µM [falling, single point] | – |
